Measured data: PubChem BioAssay AID1259297 (Sanger Institute, 2017)

Screen: 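Kinase knock-downs that lower colorectal cancer cell viability or act with drugs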 (primary screen)
Cell system: human RCM1 colorectal cancer cell line
Reagent: siRNA pool against human genes
Conditions: separate arms: DMSO vehicle, or one anchor drug at a mild dose: BYL719 1 µM, cetuximab 5 µg/ml, trametinib 10 nM
Measured: 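Replicate-mean well viability as a share of non-targeting pool control, a robust z-score without drug, and synergy scores for BYL719, cetuximab and trametinib arms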
Direction: viability z-score, knock-down alone: higher = more viable cells than non-targeting controls; viability, knock-down alone (DMSO): higher = more viable cells
Units: viability, knock-down alone (DMSO) in fraction of control
Rule for the call: 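Essential when the viability robust z-score for knock-down alone is below -3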
Calls: active = essential when knocked down alone; inactive = no clear loss of viability alone
The whole screen tested 794 reagents; below is an unselected part. 13 of all reagents (1.6%) were called active. 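Calls reflect knock-down without drug only; drug synergy is judged separately, with scores above 0.15 counted as synergy.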 Reagents against one gene are numbered here. No viability above 1 is reported: the scale is capped. Further read-outs or replicates are left out here. The record does not give: the amount of reagent, the time to read-out.

Depletion of NEK7 (GeneID 140609) came out at: viability z-score, knock-down alone 0.9; viability, knock-down alone (DMSO) = 1; inactive. Depletion of IDH2 (GeneID 3418) came out at: viability z-score, knock-down alone 0.9; viability, knock-down alone (DMSO) = 1; inactive. After knock-down of NUP98 (GeneID 4928) the results were viability z-score, knock-down alone -3.88; viability, knock-down alone (DMSO) = 0.556; active. Against CSNK1G1 (GeneID 53944) the deposit lists viability z-score, knock-down alone 0.9; viability, knock-down alone (DMSO) = 1; inactive. Against CDK4 (GeneID 1019) the deposit lists viability z-score, knock-down alone 0.9; viability, knock-down alone (DMSO) = 1; inactive. After knock-down of CAD (GeneID 790), the screen gave viability z-score, knock-down alone 0.9; viability, knock-down alone (DMSO) = 1; inactive.

With knock-down of TRIO (GeneID 7204) the results were viability z-score, knock-down alone 0.117; viability, knock-down alone (DMSO) = 0.927; inactive. For STYK1 (GeneID 55359), the values are viability z-score, knock-down alone -1.01; viability, knock-down alone (DMSO) = 0.823; inactive. For ILK (GeneID 3611) #1 the deposit lists viability z-score, knock-down alone 0.789; viability, knock-down alone (DMSO) = 0.99; inactive. ILK (GeneID 3611) #2 showed viability z-score, knock-down alone -0.179; viability, knock-down alone (DMSO) = 0.9; inactive. With knock-down of ACVR2B (GeneID 93), the screen gave viability z-score, knock-down alone 0.0594; viability, knock-down alone (DMSO) = 0.922; inactive. Silencing of IRAK1 (GeneID 3654) gave: viability z-score, knock-down alone -0.0634; viability, knock-down alone (DMSO) = 0.911; inactive.

TSSK4 (GeneID 283629) showed viability z-score, knock-down alone 0.9; viability, knock-down alone (DMSO) = 1; inactive. EPHB3 (GeneID 2049) scored viability z-score, knock-down alone -2.95; viability, knock-down alone (DMSO) = 0.643; inactive. Depletion of PKIB (GeneID 5570) gave: viability z-score, knock-down alone 0.519; viability, knock-down alone (DMSO) = 0.965; inactive. TGFBR2 (GeneID 7048) gave viability z-score, knock-down alone -0.722; viability, knock-down alone (DMSO) = 0.849; inactive. For MED12 (GeneID 9968), the entry reads viability z-score, knock-down alone 0.9; viability, knock-down alone (DMSO) = 1; inactive. FGFR4 (GeneID 2264) scored viability z-score, knock-down alone 0.723; viability, knock-down alone (DMSO) = 0.984; inactive.

After knock-down of VRK3 (GeneID 51231) the results were viability z-score, knock-down alone 0.382; viability, knock-down alone (DMSO) = 0.952; inactive.
